# Reference: US20260060970A1, “Use of a Therapeutic Agent with Phosphodiesterase-7 Inhibitory Activity for the Treatment and Prevention of Diseases Associated with Chronic Fatigue, Exhaustion and/or Exertional Intolerance” (MITODICURE GMBH, priority 2022, published 2026)
# At least one structure is not confirmed: it was looked up by name or label, or the drawing left a doubt.
# System: isolated rat soleus muscle
# Experiment: Ex vivo model: residual contractile force of isolated rat soleus muscle in high KCl buffer (Na+/K+ATPase activation)
# Conditions: test compound plus salbutamol 1 μM; KCl 12.5 mM buffer
# From the text: Muscular fatigue and loss of force (e.g., loss of handgrip strength) is a hallmark in ME/CFS patients. A main target of PDE7 inhibition is the skeletal muscle whose energetic function is deeply disturbed in ME/CFS and which is presumed to be very important in the symptomatology of ME/CFS. Insufficient stimulation of the Na^+/K^+ATPase plays a key role in the development of the disturbances by a rise in intramuscular sodium that finally leads to calcium overload. The latter causes a deep functional energetic disturbance or damage. The isolated rat muscle either soleus muscle or extensor digitorum longus muscle is a well-characterized and well-validated model for the study of the function of the Na^+/K^+ATPase. The isolated rat soleus muscle is particularly appropriate for experiments ex vivo as it is very thin so that there is no need for blood supply. […] In the experimental setting used, the high KCl concentration buffer causes partial depolarization that leads to sodium influx to disturb and to decrease excitability to subsequently reduce muscle force. […]
# Force measurement: The experimental set-up used for force measurements allowed for the simultaneous recordings from 6 muscles in separate incubation chambers in parallel. Force was recorded and stored with a Notocord HEM data acquisition system. […]
structure (smiles),measurement,value
Cc1ccc([N+](=O)[O-])cc1S(=O)(=O)N(C)C [Formula No. 8A],effect on residual contractile force compared with salbutamol alone,"strong, statistically significant effects over salbutamol alone"
